# Results reported in the supplement of paper PMC4635364.
# Structures can show the parent of a compound that is named as a salt. This is one part of the list. Repeats in this data set agree poorly, so a single value says little.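 Cells: ReNCell VM human fetal ventral-midbrain neural progenitors, differentiated mitogen-free. Blinded raters compared doublecortin-stained (early neurons) or tyrosine hydroxylase-stained (dopaminergic neurons) images with untreated wells, where 0 means no change. After repeats and both raters were averaged, compounds scoring 2 or above became hits for retesting.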
# How the values were obtained:
# ReNCell VM [1] = experiment: neuronal differentiation score (DCX+ cell fraction vs untreated, manual image score) (score (-3 to 3)); higher = more neuronal differentiation; conditions: 2 uM, 2 weeks
# ReNCell VM [2] = experiment: dopaminergic neuron differentiation score (TH+ cell fraction vs untreated, manual image score) (score (0 to 3)); higher = more TH+ dopaminergic neuron differentiation; conditions: 2 uM, 4 weeks, BDNF 10 ng/ml + GDNF 10 ng/ml
structure (smiles),measurement,setting,value
N#Cc1nn(-c2c(Cl)cc(C(F)(F)F)cc2Cl)c(N)c1[S+]([O-])C(F)(F)F (stereo not drawn),neuronal differentiation score,ReNCell VM [1]; library: Spectrum,inactive: 0
same,dopaminergic neuron differentiation score,ReNCell VM [2]; library: Spectrum,inactive: 0
C=CCc1ccccc1OCC(O)CNC1(C)CCC(C(C)(C)NC(=O)CBr)CC1 (stereo not drawn) [Bromoacetyl alprenolol menthane],neuronal differentiation score,ReNCell VM [1]; library: LOPAC,inactive: 0
same,dopaminergic neuron differentiation score,ReNCell VM [2]; library: LOPAC,inactive: 0
CN1CCN(C(=O)O[C@H]2c3nccnc3C(=O)N2c2ccc(Cl)cn2)CC1,neuronal differentiation score,ReNCell VM [1]; library: Spectrum,inactive: 0
same,dopaminergic neuron differentiation score,ReNCell VM [2]; library: Spectrum,inactive: 0
C[C@H]1CC[C@@H]2N(C1)C[C@H]1[C@@H]3C[C@H]4[C@@H](CC(=O)[C@H]5C[C@@H](O)CC[C@@]54C)[C@@H]3CC[C@H]1[C@]2(C)O [Imperialine],neuronal differentiation score,ReNCell VM [1]; library: Phytochemical,inactive: 0
same,dopaminergic neuron differentiation score,ReNCell VM [2]; library: Phytochemical,inactive: 0
O=[N+]([O-])c1cc(O)c(O)c([N+](=O)[O-])c1,neuronal differentiation score,ReNCell VM [1]; library: Tocriscreen,inactive: 0
same,dopaminergic neuron differentiation score,ReNCell VM [2]; library: Tocriscreen,inactive: 0
N.N.[Cl][Pt][Cl],neuronal differentiation score,ReNCell VM [1]; library: Spectrum,inactive: 0
same,dopaminergic neuron differentiation score,ReNCell VM [2]; library: Spectrum,inactive: 0
C[CH2][Hg][S]c1ccccc1C(=O)[O-].[Na+] [Thimerosal],neuronal differentiation score,ReNCell VM [1]; library: Prestwick,inactive: 0
same,dopaminergic neuron differentiation score,ReNCell VM [2]; library: Prestwick,inactive: 0
N#CC(C#N)=Cc1ccc(O)c(O)c1 [Tyrphostin 23],neuronal differentiation score,ReNCell VM [1]; library: LOPAC,inactive: 0
same,dopaminergic neuron differentiation score,ReNCell VM [2]; library: LOPAC,inactive: 1
CCCN1CC[C@@H]2c3cc(O)ccc3CC[C@@H]21 (racemic) [cis(+/-)-8-OH-PBZI hydrobromide],neuronal differentiation score,ReNCell VM [1]; library: LOPAC,inactive: 0
same,dopaminergic neuron differentiation score,ReNCell VM [2]; library: LOPAC,inactive: 0
"CC1C2Cc3ccc(O)cc3C1(C)CCN2CC1CC1 (single isomer, unassigned; (+)) [(+)-Cyclazocine]",neuronal differentiation score,ReNCell VM [1]; library: LOPAC,inactive: 0
same,dopaminergic neuron differentiation score,ReNCell VM [2]; library: LOPAC,inactive: 0
C[C@]12N[C@H](Cc3ccccc31)c1ccccc12 [Dizocilpine maleate],neuronal differentiation score,ReNCell VM [1]; library: Prestwick,inactive: 0
same,dopaminergic neuron differentiation score,ReNCell VM [2]; library: Prestwick,inactive: 0
CCN1C[C@]2(COC)CC[C@H](O)[C@]34C1[C@@](O)([C@@H](OC)[C@H]23)[C@@]1(O)C[C@H](OC)[C@H]2C[C@@H]4[C@@H]1[C@H]2OC [Delsoline],neuronal differentiation score,ReNCell VM [1]; library: Phytochemical,inactive: 0
same,dopaminergic neuron differentiation score,ReNCell VM [2]; library: Phytochemical,inactive: 0
N[C@H](CO)Cc1ccccc1,neuronal differentiation score,ReNCell VM [1]; library: Spectrum,inactive: 0
same,dopaminergic neuron differentiation score,ReNCell VM [2]; library: Spectrum,inactive: 0
COC1=CC(=O)O[C@@H](/C=C/c2ccccc2)C1 [Kawain],neuronal differentiation score,ReNCell VM [1]; library: Phytochemical,inactive: 0
same,dopaminergic neuron differentiation score,ReNCell VM [2]; library: Phytochemical,inactive: 0
C=CCN(C1=NCCN1)c1c(Cl)cccc1Cl [Alinidine],neuronal differentiation score,ReNCell VM [1]; library: LOPAC,inactive: 0
same,dopaminergic neuron differentiation score,ReNCell VM [2]; library: LOPAC,inactive: 0
CCCCC/C=C\C/C=C\C/C=C\C/C=C\CCCC(=O)Nc1ccc(O)cc1,neuronal differentiation score,ReNCell VM [1]; library: Tocriscreen,inactive: 0
same,dopaminergic neuron differentiation score,ReNCell VM [2]; library: Tocriscreen,inactive: 0
C#CCOC(=O)C1=CCCN(C)C1 [Arecaidine propargyl ester hydrobromide],neuronal differentiation score,ReNCell VM [1]; library: LOPAC,inactive: 0
same,dopaminergic neuron differentiation score,ReNCell VM [2]; library: LOPAC,inactive: 0
C[C@@H]1NCCc2cc(O)c(O)cc21,neuronal differentiation score,ReNCell VM [1]; library: Spectrum,inactive: 0
same,dopaminergic neuron differentiation score,ReNCell VM [2]; library: Spectrum,inactive: 0
O=c1cccc2n1C[C@@H]1CNC[C@H]2C1,neuronal differentiation score,ReNCell VM [1]; library: Spectrum,inactive: 0
same,dopaminergic neuron differentiation score,ReNCell VM [2]; library: Spectrum,inactive: 0
O=c1ccc2cc(O[C@@H]3O[C@H](CO)[C@@H](O)[C@H](O)[C@H]3O)c(O)cc2o1 [Esculin Hydrate],neuronal differentiation score,ReNCell VM [1]; library: Phytochemical,inactive: 0
same,dopaminergic neuron differentiation score,ReNCell VM [2]; library: Phytochemical,inactive: 0
Cn1cnc(CCN)c1 [1-Methylhistamine dihydrochloride],neuronal differentiation score,ReNCell VM [1]; library: LOPAC,inactive: 0
same,dopaminergic neuron differentiation score,ReNCell VM [2]; library: LOPAC,inactive: 0
O=C(O)[C@@H]1[C@H](C(=O)O)[C@H]2CC[C@@H]1O2 [Endothall],neuronal differentiation score,ReNCell VM [1]; library: LOPAC,inactive: 0
same,dopaminergic neuron differentiation score,ReNCell VM [2]; library: LOPAC,inactive: 1
COc1ccc(C(=O)N2CCCC2=O)cc1,neuronal differentiation score,ReNCell VM [1]; library: Spectrum,inactive: 0
same,dopaminergic neuron differentiation score,ReNCell VM [2]; library: Spectrum,inactive: 0
COCC#CCN1CCCCC1c1cccnc1 (stereo not drawn),neuronal differentiation score,ReNCell VM [1]; library: Natural,inactive: 0
same,dopaminergic neuron differentiation score,ReNCell VM [2]; library: Natural,inactive: 0
CC(=O)[C@H]1CC[C@H]2[C@@H]3CC[C@H]4C[C@H](O)CC[C@]4(C)[C@H]3CC[C@]12C [5alpha-Pregnan-3alpha-ol-20-one],neuronal differentiation score,ReNCell VM [1]; library: LOPAC,inactive: 0
same,dopaminergic neuron differentiation score,ReNCell VM [2]; library: LOPAC,inactive: 0
CC[C@H]1CN2CC[C@H]1C[C@@H]2[C@@H](O)c1ccnc2ccc(OC)cc12 [Hydroquinidine HCl],neuronal differentiation score,ReNCell VM [1]; library: Phytochemical,inactive: -3
same,dopaminergic neuron differentiation score,ReNCell VM [2]; library: Phytochemical,inactive: 0
c1ccc2c(c1)[nH]c1cnccc12,neuronal differentiation score,ReNCell VM [1]; library: Spectrum,inactive: 0
same,dopaminergic neuron differentiation score,ReNCell VM [2]; library: Spectrum,inactive: 0
CCOP(=S)(OCC)Oc1cc(C)nc(C(C)C)n1,neuronal differentiation score,ReNCell VM [1]; library: Spectrum,inactive: 0
same,dopaminergic neuron differentiation score,ReNCell VM [2]; library: Spectrum,inactive: 1
C[C@]12CC[C@H]3[C@@H](CC[C@@]45O[C@@H]4C(O)=C(C#N)C[C@]35C)[C@@H]1CC[C@@H]2O,neuronal differentiation score,ReNCell VM [1]; library: Spectrum,inactive: 0
same,dopaminergic neuron differentiation score,ReNCell VM [2]; library: Spectrum,inactive: 0
CNC(=O)Oc1ccccc1OC(C)C,neuronal differentiation score,ReNCell VM [1]; library: Spectrum,inactive: 0
same,dopaminergic neuron differentiation score,ReNCell VM [2]; library: Spectrum,inactive: 0
"Clc1ccc(N2CCN(Cc3c[nH]c4ncccc34)CC2)cc1 [L-745,870 hydrochloride]",neuronal differentiation score,ReNCell VM [1]; library: LOPAC,inactive: 0
same,dopaminergic neuron differentiation score,ReNCell VM [2]; library: LOPAC,inactive: 0
"CN1CC[C@@]2(C)c3cc(O)ccc3N(C)C12 (single isomer, unassigned; (-)) [(-)-Eseroline fumarate]",neuronal differentiation score,ReNCell VM [1]; library: LOPAC,inactive: 0
same,dopaminergic neuron differentiation score,ReNCell VM [2]; library: LOPAC,inactive: 0
CC1(C)C2CC(=O)[C@]3(C)C(CC[C@@]4(C)[C@H](c5ccoc5)OC(=O)C5OC543)[C@@]2(C)[C@@H](O)C[C@H]1O (stereo partly drawn),neuronal differentiation score,ReNCell VM [1]; library: Spectrum,inactive: 0
same,dopaminergic neuron differentiation score,ReNCell VM [2]; library: Spectrum,inactive: 0
"NC(N)=NOCC[C@H](N)C(=O)O [Canavanine sulfate monohydrate (L,+)]",neuronal differentiation score,ReNCell VM [1]; library: Phytochemical,inactive: 1
same,dopaminergic neuron differentiation score,ReNCell VM [2]; library: Phytochemical,inactive: 0

# An excerpt of these results, with bars between the fields.
structure (smiles) | measurement | setting | value
C[C@H]1CC[C@@H]2N(C1)C[C@H]1[C@@H]3C[C@H]4[C@@H](CC(=O)[C@H]5C[C@@H](O)CC[C@@]54C)[C@@H]3CC[C@H]1[C@]2(C)O [Imperialine] | dopaminergic neuron differentiation score | ReNCell VM [2]; library: Phytochemical | inactive: 0
O=[N+]([O-])c1cc(O)c(O)c([N+](=O)[O-])c1 | dopaminergic neuron differentiation score | ReNCell VM [2]; library: Tocriscreen | inactive: 0
CCN1C[C@]2(COC)CC[C@H](O)[C@]34C1[C@@](O)([C@@H](OC)[C@H]23)[C@@]1(O)C[C@H](OC)[C@H]2C[C@@H]4[C@@H]1[C@H]2OC [Delsoline] | dopaminergic neuron differentiation score | ReNCell VM [2]; library: Phytochemical | inactive: 0
CCCCC/C=C\C/C=C\C/C=C\C/C=C\CCCC(=O)Nc1ccc(O)cc1 | neuronal differentiation score | ReNCell VM [1]; library: Tocriscreen | inactive: 0
C[C@@H]1NCCc2cc(O)c(O)cc21 | neuronal differentiation score | ReNCell VM [1]; library: Spectrum | inactive: 0
